Results: PubChem BioAssay (EPA / NIEHS)
“And” between values parts separate entries of the source, which are not always exact repeats. Identical values can stand only once. Inconclusive results, whose numbers are uncertain, are shown with a selection of clear calls. Where the call is inconclusive, the potency comes from a doubtful curve fit. Where a structure was tested more than once in an assay, its records may differ in their call. The source made the active and inactive calls. How the source made its calls: active means hit-call score of the fitted dose curve at least 0.9, where 1 is the maximum; inconclusive means response in the unintended direction; inactive means score below 0.9.

Amino acid sequences for entries named in this document (tags omitted).
UniProt P43354, whole entry, looked up: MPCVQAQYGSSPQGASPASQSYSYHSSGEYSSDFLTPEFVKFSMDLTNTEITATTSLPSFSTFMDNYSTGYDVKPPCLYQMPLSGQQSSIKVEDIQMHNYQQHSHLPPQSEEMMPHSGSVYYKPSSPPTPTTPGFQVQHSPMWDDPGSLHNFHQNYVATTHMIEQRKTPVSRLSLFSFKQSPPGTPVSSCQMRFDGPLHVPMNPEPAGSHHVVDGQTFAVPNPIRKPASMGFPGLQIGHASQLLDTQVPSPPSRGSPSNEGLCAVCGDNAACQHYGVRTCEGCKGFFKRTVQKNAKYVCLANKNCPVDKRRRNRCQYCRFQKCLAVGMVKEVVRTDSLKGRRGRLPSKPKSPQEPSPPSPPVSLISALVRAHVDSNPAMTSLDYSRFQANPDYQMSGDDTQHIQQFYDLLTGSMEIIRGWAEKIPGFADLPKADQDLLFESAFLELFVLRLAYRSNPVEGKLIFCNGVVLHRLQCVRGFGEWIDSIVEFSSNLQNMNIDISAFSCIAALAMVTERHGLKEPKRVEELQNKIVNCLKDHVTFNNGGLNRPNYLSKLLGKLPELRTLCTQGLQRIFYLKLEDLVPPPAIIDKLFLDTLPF

target: Nuclear receptor subfamily 4 group A member 2 (Homo sapiens) (UniProt P43354); assay: ATG_NURR1_TRANS: Attagene TRANS-FACTORIAL HepG2 Assay for human Nuclear Receptor Related Protein 1 (NURR1) (AID 2282985); settings: HepG2 Attagene TRANS reporter, mRNA readout
Protocol: ATG_TRANS is a cell-based, multiplexed-readout assay that uses HepG2, a human liver cell line, with measurements taken at 24 hours after chemical dosing in a 24-well plate.ATG_NURR1_TRANS is one of 30 assay component(s) measured or calculated from the ATG_TRANS assay. It is designed to make measurements of mRNA induction, a form of inducible reporter, as detected with fluorescence intensity signals by Reverse transcription polymerase chain reaction (RT-PCR) and Capillary electrophoresis technology.Data from the assay component ATG_NURR1_TRANS was analyzed into 1 assay endpoint. This assay endpoint, ATG_NURR1_TRANS, was analyzed in the positive analysis fitting direction relative to DMSO as the negative control and baseline of activity. Using a type of inducible reporter, measures of mRNA for gain-of-signal activity can be used to understand the reporter gene at the transcription factor-level as they relate to the gene NR4A2. Furthermore, this assay endpoint can be referred to as a primary readout, because this assay has produced multiple assay endpoints where this one serves a reporter gene function. To generalize the intended target to other relatable targets, this assay endpoint is annotated to the nuclear receptor intended target family, where the subfamily is orphan.
Human liver HepG2 cells are transiently transfected with multiple reporter transcription units (MRTUs) in 6-well plates using FuGene 6 reagent (Roche; 3 ml FuGene/1 mg DNA). The MRTU constructs are regulated by a cis-regulating element (promoter). […] A major difference between the CIS and TRANS system is that in CIS activities of endogenous TFs are measured, whereas the TRANS assay evaluates changes in activities of exogenous, chimeric NR-Gal4 proteins. […] At the end of 24 hour incubation, total RNA was isolated using TriZol reagent (Invitrogen). The isolated RNA is then reverse-transcribed using oligo(dT) primer and Mo-MLV reverse transcriptase (Invitrogen) with DNAse I (Ambion) treatment for 30 min. The one-tenth of the produced cDNA was amplified by PCR using Taq DNA polymerase (Invitrogen) and two reporter sequence-specific primers. The PCR products were fluorescently labeled by primer extension with 6-arboxyfluorescein (6-FAM) 5'-labeled reporter sequence-specific primer (2 min at 95 C, 20 s at 68 C and 10 min at 72 C) and these products were digested with 5U of HpaI (New England Biolabs) for 2h at 37 C. The fragments were purified using Qiaquick PCR columns (Qiagen), analyzed on an ABI 3130xL genetic analyzer (Applied Biosystems) with peak positions identified by using a set of X-rhodamine (ROX)-labeled MapMarker1000 molecular weight standards (BioVentures). The raw capillary electrophoresis data was processed using Attagraph software (Attagene).

Compound | AC50 | outcome
OCC(O)CC(F)(F)C(F)(F)C(F)(F)C(F)(F)F (stereo not given) | inconclusive: 150 µM | –
CC(C)C(=O)OCc1ccccc1 | inconclusive: 100 µM | –
CCCCCCCCCCCCCCCCCC(=O)OCC(CC)CCCC (stereo not given) | – | inactive
O=CCc1ccccc1 | – | inactive
CCN(CCC#N)c1ccc(N=Nc2ccc([N+](=O)[O-])cc2)cc1 | inconclusive: 100 µM | –
Cc1ccc([N+](=O)[O-])cc1N | inconclusive: 176 µM | –
Cc1occc(=O)c1OC(=O)C(C)C | – | inactive
CCCCC(CC)COC(=O)c1ccccc1O (stereo not given) | – | inactive
CC(=O)OCC(=O)[C@@]12N=C(C)O[C@@H]1C[C@H]1[C@@H]3CCC4=CC(=O)C=C[C@]4(C)[C@H]3[C@@H](O)C[C@@]12C | active: 17.1 µM | –
CC(C)(C)C(=O)CC(=O)C(F)(F)C(F)(F)C(F)(F)F | – | inactive
CC(=O)C1C(=O)C=C(C)OC1=O (stereo not given) | – | inactive
O=C1CCCCCCCCCCCC(=O)OCCO1 | – | inactive
CCCCOCCOCCSC#N | inconclusive: 61 µM | –
CN(C)CCCN(C)C | inconclusive: 5.4 µM | –
CC(C)(C)C1=CC(=O)C(C(C)(C)C)=CC1=O | active: 74 µM | –
CCOCCO | inconclusive: 7.22 µM | –
C=C(C)C(=O)OCCC(F)(F)C(F)(F)C(F)(F)C(F)(F)C(F)(C(F)(F)F)C(F)(F)F | inconclusive: 50 µM | –

Compound | AC50 | outcome
CNC(=C[N+](=O)[O-])NCCSCc1ccc(CN(C)C)o1 | – | inactive
O=C1OC2(c3ccccc31)c1cc(I)c(O)c(I)c1Oc1c2cc(I)c(O)c1I | active: 25.4 µM | inactive
CC[N+](C)(CC)CC | inconclusive: 100 µM | –
CC(C)=CCCC(C)=CCCC(C)=CCO | – | inactive
CCC1CCCCC1 | inconclusive: 100 µM | –
CC(=O)CC(C)C | inconclusive: 3.76 µM and inconclusive: 1.76 µM | –
CCN(CC)CCOC(=O)c1ccc(N)cc1 | inconclusive: 21 µM | –
CC(=O)c1nccs1 | inconclusive: 100 µM | –
FC(F)(F)C(F)(F)C(F)(F)C(F)(F)I | inconclusive: 150 µM | –
FC(F)(F)C(F)(F)C(F)(F)C(F)(F)C(F)(F)CCI | – | inactive
CCN(CC#N)c1cccc(C)c1 | – | inactive
N#CCN(CC#N)CCN(CC#N)CC#N | inconclusive: 184 µM | –
Cc1cccnc1 | inconclusive: 19.8 µM | –
CC(=O)O[C@@H]1C[C@@H]2CC[C@@]1(C)C2(C)C | inconclusive: 100 µM | –
CCC(=O)C1CC(C(C)C)CC=C1C (stereo not given) | inconclusive: 100 µM | –
O=S(=O)(Cl)C(F)(F)C(F)(F)C(F)(F)C(F)(F)C(F)(F)C(F)(F)C(F)(F)C(F)(F)F | – | inactive
